From PubChem BioAssay AID504444 (National Center for Advancing Translational Sciences (NCATS), 2011)
The campaign covered roughly 360,000 compounds. About 7,500 (2.1%) were called active. This list was built around the results that the source calls inconclusive (neither active nor inactive); the mix of calls is not that of the screen. Calls follow the shape of the dose curve; as a rule, active = well fitted inhibition curve with a large enough effect; inconclusive = small, poorly fitted or top-dose-only effect, or effect the other way; inactive = flat fitted curve, though single readings scatter. Potencies beside an inconclusive call are fits to weak or partial responses and may not hold up. Square brackets hold non-standard residues; d marks the D form. Peptide text beside a SMILES is read from it.

experiment: Nrf2 qHTS screen for inhibitors; conditions: A549 ARE-Fluc reporter, luciferase luminescence, 18-24 h; series mostly up to 46 µM; also: nearly all actives have a fitted effect of over 60% in size
Outline: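 A549 ARE_Fluc cells (5000/well, 5% FBS OPTI-MEM) pre-incubated 2 h, then treated with compounds 18-24 h at 37C/5% CO2 in concentration-response. CellTiter-Fluor viability read first; BugLite luciferase luminescence after 15 min at room temperature gives Nrf2 activity.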
Potency is read from the fitted curve at half-maximal effect.

Structure (SMILES)	Potency
Nc1c(-c2cccc(Cl)c2)cnc2c(-c3ccccc3)cnn12	inconclusive: 29.1 µM [activator, single point]
COc1ccc(CN(C(=S)Nc2ccccc2)C2CC(=O)N(c3ccc(Cl)cc3)C2=O)cc1 (centres undefined)	inconclusive: 32.6 µM [falling, single point]
COc1ccc(/C=C/C(=O)Nc2cc(=O)n(C)c(=O)n2C)cc1	inactive
Cc1ccsc1CCNC(=O)C1CCC(=O)N(CCc2cccc(F)c2)C1 (centres undefined)	inconclusive: 20.6 µM [activator, partial curve]
CC(NC(=O)C1CCC1)c1ccc(Br)cc1 (centres undefined)	inactive
Cc1cc(NCCCOC(C)C)n2c(nc3ccccc32)c1C#N	inconclusive: 8.2 µM [falling, partial curve]
COc1ccc(NS(=O)(=O)c2ccc(N3CCOCC3)c(NC(=O)c3cccc(F)c3)c2)cc1	inconclusive: 20.6 µM [falling, partial curve, poor fit]
CN(CC(=O)Nc1cccc(F)c1)C(=O)c1ccccc1Sc1ccccc1C#N	inconclusive: 1.84 µM [falling, partial curve, poor fit]
COc1cc2[nH]c3c(=O)n(CCN(C(C)C)C(C)C)cnc3c2cc1OC	inactive
COC(=O)N/N=C\c1c(C)nn(-c2ccccc2)c1Cl	inconclusive: 5.8 µM [activator, partial curve, poor fit]
Cc1ccc(NC(=S)Nc2ccc(OC(F)F)c(Cl)c2)cc1F	inconclusive: 23.1 µM [falling, single point]
CCN(CC)S(=O)(=O)c1ccc(Cl)c(NC(=O)CSc2cccc[n+]2[O-])c1	inactive
COc1cc2cc3c(N)c(C(=O)Nc4sc(C)c(C)c4C#N)sc3nc2cc1OC	inconclusive: 0.326 µM [falling, full curve, poor fit]
O=C(NCc1ccco1)c1cccc(F)c1	inconclusive: 0.0046 µM [falling, partial curve, poor fit]
CCN(Cc1ccccc1)C(=O)Cn1c(=O)n(-c2ccccc2)c(=O)c2c1c1cc(C)ccc1n2C	inconclusive: 32.6 µM [activator, single point]
Cc1ccc(NC2=Nc3ccccc3N3C2=Nc2c(c(C)nn2-c2ccccc2)C3c2ccc(O)c(O)c2)cc1 (centres undefined)	active: 18.4 µM
Cc1cccc(C)c1Nc1nnc(SCc2nc3ccccc3s2)s1	inconclusive: 29.1 µM [activator, single point]
O=C(O)c1cc(NCc2c(F)cccc2Cl)ccc1N1CCOCC1	inconclusive: 4.11 µM [activator, single point]
CN(C)CCCN(C(=O)/C=C/c1cccs1)c1nc2ccc(F)cc2s1	inactive
O=C(CSC1=NCCS1)Nc1ccc(S(=O)(=O)N2CCCCCC2)cc1	active: 14.6 µM
CC(=O)c1c(C)[nH]c(C(=O)/C(C#N)=C/c2cccc(C)c2)c1C	inconclusive: 16.4 µM [falling, partial curve, poor fit]
COc1ccccc1NC(=O)COc1cc(Br)c(CNCCCN2CCOCC2)cc1OC	inconclusive: 3.66 µM [activator, partial curve, poor fit]

Structure (SMILES)	Potency
CC(C(=O)c1ccc(-c2ccccc2)cc1)[n+]1ccccc1 (centres undefined)	active: 7.31 µM
Cc1ccc(C(=O)NCCS(=O)(=O)N2CCN(c3ccccc3F)CC2)cc1[N+](=O)[O-]	inconclusive: 20.6 µM [falling, single point]
CN(CCC#N)C(=O)COC(=O)c1ccc2[nH]c3c(c2c1)CCCC3	inconclusive: 29.1 µM [activator, single point]
O=C(CSc1nc2ccccc2c(=O)n1-c1ccccc1)N1CCCc2ccccc21	inconclusive: 20.6 µM [falling, single point]
COC(c1ccccc1)c1nnc(CCC(=O)NC2CCCCC2)o1 (centres undefined)	inconclusive: 10.3 µM [activator, partial curve]
O=C(O)CN(c1ccccc1)S(=O)(=O)c1cc(C(F)(F)F)cc(C(F)(F)F)c1	inconclusive: 23.1 µM [falling, partial curve]
CC1CCc2c(c3ccccc3[nH]c2=O)O1 (centres undefined)	inconclusive: 0.651 µM [falling, full curve, poor fit]
Cc1ccc(Cn2nnc(C(=O)Nc3cc(C)ccc3C)c2N)cc1	inconclusive: 2.91 µM [falling, single point]
CCC1CCCCN1CCCNC(=O)c1ccc2nc(N3CCCCC3)sc2c1 (centres undefined)	inconclusive: 0.731 µM [activator, full curve, poor fit]
O=C(/C=C/c1ccc(-c2ccccc2)cc1)NCc1cccnc1	inconclusive: 18.4 µM [falling, single point]
CC(C)CC(=O)NC(=S)NNC(=O)c1ccc(NC(=O)C2CCCCC2)cc1	inconclusive: 32.6 µM [falling, single point]
CCN(C(=O)C1CCN(S(=O)(=O)c2cc(Br)cc3c2N(C(C)=O)CC3)CC1)c1cccc(C)c1	inconclusive: 9.2 µM [falling, partial curve, poor fit]
Nc1nc(=S)c2ncn(C3CCCCC3)c2[nH]1	inactive
CC[C@H](C)[C@@H]1NC(=O)[C@H]([C@@H](C)CC)NC(=O)[C@@H](CC(C)C)NC(=O)[C@H](Cc2ccccc2)NC(=O)[C@H](Cc2ccccc2)NC(=O)[C@@H]2CCCN2C(=O)[C@@H]2CCCN2C(=O)[C@H](C(C)C)NC(=O)[C@H](CC(C)C)NC1=O (cyclo(FF[dL]IILVPP))	inconclusive: 20.6 µM [falling, partial curve, poor fit]
CC1CCN(S(=O)(=O)c2ccc(NC(=O)Cn3nnc(-c4ccccc4)n3)cc2)CC1	inconclusive: 32.6 µM [falling, single point]
Cc1cc(NC(=O)c2ccc(S(=O)(=O)Nc3ccccc3)cc2)no1	inconclusive: 2.91 µM [falling, full curve, poor fit]
COc1ccccc1OCc1ccc(C(=O)NC(C)c2ccccc2)o1 (centres undefined)	inconclusive: 18.4 µM [falling, single point]
Cc1cc(C(=O)CSc2nnnn2C)c(C)n1-c1cccc(F)c1	inconclusive: 2.91 µM [activator, partial curve, poor fit]
COc1cc(C(=O)NC(=S)NNC(=O)c2ccc3c(c2)OCO3)cc(OC)c1OC	inconclusive: 29.1 µM [falling, single point]
COc1cccc(CN2CCC(C(=O)N3CCN(c4ccccc4F)CC3)CC2)c1	inactive
O=[N+]([O-])c1cc(-c2cnc3ccccc3n2)ccc1Oc1ccc(Br)cc1	inconclusive: 25.9 µM [falling, partial curve, poor fit]
CC(C)(C)c1ccc(C(=O)NCC(c2cccnc2)N2CCc3ccccc3C2)cc1 (centres undefined)	inconclusive: 2.59 µM [activator, full curve]

Molecules above that have a thiophene ring, fused or not (3):
Structure (SMILES)	Potency
Cc1ccsc1CCNC(=O)C1CCC(=O)N(CCc2cccc(F)c2)C1 (centres undefined)	inconclusive: 20.6 µM [activator, partial curve]
COc1cc2cc3c(N)c(C(=O)Nc4sc(C)c(C)c4C#N)sc3nc2cc1OC	inconclusive: 0.326 µM [falling, full curve, poor fit]
CN(C)CCCN(C(=O)/C=C/c1cccs1)c1nc2ccc(F)cc2s1	inactive

(continued)

Structure (SMILES)	Potency
CCc1nc(N2CCN(C(=O)c3ccccc3)CC2)c(C#N)c2c1COC(C)(C)C2	inconclusive: 8.2 µM [falling, partial curve, poor fit]
O=C(Nc1ccc2nc(SCC(=O)N3CCOCC3)sc2c1)c1cccc(Br)c1	inconclusive: 16.4 µM [falling, single point]
O=C(Nc1ccc(F)c(Cl)c1)c1ccc2c(c1)OCO2	inconclusive: 8.2 µM [activator, partial curve]
Cc1cc(C)n(Cc2ccc(C(=O)Nc3cccc(Br)c3)o2)n1	active: 23.1 µM
COc1ccc(OC(=O)c2nc(SCc3ccccc3F)ncc2Cl)cc1	inactive
CC12C(=O)N(c3cccc(OC(=O)c4ccco4)c3)C(=O)C1C1c3ccccc3C2c2ccccc21 (centres undefined)	inconclusive: 29.1 µM [falling, single point]
CC(=O)OC1CC2(C)/C(=N\O)CCC2C2CCc3cc(O)ccc3C12 (centres undefined)	inconclusive: 0.116 µM [falling, full curve, poor fit]
Cc1ccc(NC(=O)Cn2c(=O)n(Cc3ccco3)c(=O)c3oc4ccccc4c32)cc1C	inactive
CC1(C(=O)N2CCN(c3ccc([N+](=O)[O-])cc3)CC2)CC1(Cl)Cl (centres undefined)	active: 18.4 µM
O=C1CN(C(=O)COc2ccc(F)cc2Br)c2ccccc2N1	inconclusive: 0.731 µM [falling, partial curve, poor fit]
COc1ccc(/C=N/NC(=O)c2cccc(C(=O)N/N=C/c3ccc(OC)c(OC)c3)n2)cc1OC	inactive
O=C(O)c1ccc2ccc3ccccc3c2c1	inactive
Cc1nn(Cc2ccc(Cl)c(Cl)c2)c(C)c1NC(=O)c1cc(CC(C)C)on1	active: 8.2 µM
COc1ccc(C2=Nn3c([n+](C)c4ccccc43)SC2)cc1	active: 2.06 µM
COc1cc(OC)cc(C(=O)Nc2ccc(Cn3ccnc3)cc2)c1	inconclusive: 5.17 µM [falling, partial curve, poor fit]
CCOc1cc(C(=O)N2CCN(c3ccccc3)CC2)cc(OCC)c1OCC	inconclusive: 7.31 µM [falling, partial curve, poor fit]
Cc1sc2ncnc(Oc3ccc(-n4ccnc4)cc3)c2c1C	inconclusive: 20.6 µM [falling, single point]
COc1ccccc1CNC(=O)COC(=O)CNS(=O)(=O)c1ccc(NC(C)=O)cc1	inconclusive: 29.1 µM [activator, partial curve, poor fit]
Cc1ccc(-c2nnc(-c3ccccc3Br)o2)cc1	inconclusive: 1.64 µM [activator, full curve]
O=C(NNC(=O)c1cc(Cl)ccc1O)c1ccc(NS(=O)(=O)c2cccs2)cc1	inconclusive: 2.91 µM [activator, partial curve, poor fit]
